Results are given in words; binding and its absence hold for the method and conditions named. Binding seen in cells or lysates may run through a third protein. Some binding calls cover weakened binding; strength is not graded here.
Biological target: Transcription factor p65 [NF-κB (p65)] (human (endogenous in HBMEC)), Q04206
Experiment: co-IP
Details: remark: other sources report otherwise

- binding: binds
B1: NF-kappa-B inhibitor alpha [IκBα], P25963 1-317 (protein)
chain: MFQAAERPQEWAMEGPRDGLKKERLLDDRHDSGLDSMKDEEYEQMVKELQEIRLEPQEVPRGSEPWKQQLTEDGDSFLHLAIIHEEKALTMEVIRQVKGDLAFLNFQNNLQQTPLHLAVITNQPEIAEALLGAGCDPELRDFRGNTPLHLACEQGCLASVGVLTQSCTTPHLHSILKATNYNGHTCLHLASIHGYLGIVELLVSLGADVNAQEPCNGRTALHLAVDLQNPDLVSLLLKCGADVNRVTYQGYSPYQLTWGRPSTRIQQQLGQLTLENLQMLPESEDEESYDTESEFTEFTEDELPYDDCVFGGQRLTL

— PMC3334993
